Earlier results, collected in patent publication US8513233B2, “Pyrimidinyl-propionic acid derivatives and their use as PPAR agonists” (Shanghai Institute of Materia Medica, CAS, priority 2007, dated 2013).
At least one structure is not confirmed: it was looked up by name or label, or the drawing left a doubt.

Experiments:
Pkd1−/− mices with ADPKD = conditions: mouse, in vivo; cited from earlier work
[1] = system: ADPKD cyst-lining epithelia; conditions: dose-dependent and time-dependent; cited from earlier work
[2] = system: human renal epithelial cells (HKC); conditions: cited from earlier work
[3] = system: Han:SPRD rats, animal model of ADPKD; conditions: cited from earlier work

SMILES | lifespan of Pkd1−/− mices with ADPKD (Pkd1−/− mices with ADPKD) | apoptosis of ADPKD cyst-lining epithelia [1] | proliferation of ADPKD cyst-lining epithelia [1] | effect on human renal epithelial cells (HKC) [2] | blood urea nitrogen (BUN) compared with control group ([3]; Han:SPRD rats) | cyst index compared with control group ([3]; Han:SPRD rats) | fibrosis score compared with control group ([3]; Han:SPRD rats) | inflammatory cells infiltration compared with control group ([3]; Han:SPRD rats) | kidney weight/body weight compared with control group ([3]; Han:SPRD rats) | proteinuria compared with control group ([3]; Han:SPRD rats) | survival of Han:SPRD rats ([3]; long-term treatment)
CCc1ccc(CCOc2ccc(CC3SC(=O)NC3=O)cc2)nc1 (centres unmarked) [pioglitazone] | prolong the lifespan | induce apoptosis | inhibit the proliferation | relatively weak |  |  |  |  |  |  | 
CN(CCOc1ccc(CC2SC(=O)NC2=O)cc1)c1ccccn1 (centres unmarked) [Rosiglitazone] |  | induce apoptosis | inhibit the proliferation | relatively weak | lesser | lesser | lesser | lesser | lesser | lesser | prolong the survival
